The campaign covered roughly 360,000 compounds. About 7,500 (2.1%) were called active. Inconclusive results, whose numbers are uncertain, are shown with a selection of clear calls. Calls follow the shape of the dose curve; as a rule, active = well fitted inhibition curve with a large enough effect; inconclusive = small, poorly fitted or top-dose-only effect, or effect the other way; inactive = flat fitted curve, though single readings scatter. Potencies of inconclusive entries are doubtful fits and often do not repeat.
Assay: Nrf2 qHTS screen for inhibitors; also: nearly all actives have a fitted effect of over 60% in size
Conditions: A549 ARE-Fluc reporter, luciferase luminescence, 18-24 h; activity change, negative = inhibition: at 46 µM (top of the series)
Procedure, shortened: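 A549 ARE_Fluc cells, 5000/well, 5% FBS OPTI-MEM; compounds in dose-response, 18-24 h at 37 °C/5% CO2; CellTiter-Fluor viability read (Ex 405/Em 525), then BugLite luciferase luminescence = Nrf2 activity.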
With `COc1ccc(OCc2ccc(-c3nc(C#N)c(NCc4ccccc4)o3)o2)cc1` the Potency was inconclusive: 29.1 µM [falling, single point].
In the case of `C[C@@H]1C(c2cccc(Cl)c2)=NN(c2ccc(Br)cc2)[C@H]1C(=O)N1CCOC1=O`, the “activity change, negative = inhibition” value was inactive: 11.5%.
For `Cc1ccc(NC(=O)c2snc3ccc(Cl)cc23)cc1C`, the Potency was inconclusive: 2.59 µM [activator, partial curve].
With `Cc1cc(NC(=O)c2cccs2)ncc1NC(=O)c1cccc(F)c1` the Potency was inconclusive: 25.9 µM [activator, partial curve].
With `COc1cc(/C=C/C(=O)O)ccc1OS(=O)(=O)c1ccc(C)cc1` the Potency was inconclusive: 23.1 µM [falling, partial curve].
With `COc1cc(NS(=O)(=O)c2c(C)oc3c(F)c(F)c(F)c(F)c23)cc(OC)c1OC` the Potency was inconclusive: 25.9 µM [falling, partial curve, poor fit].
With `C[C@H](NC(=O)c1[nH]cnc1C(=O)N[C@H](C)c1ccccc1)c1ccccc1` the Potency was inconclusive: 2.31 µM [activator, single point].
In the case of `CC/C(=N/NC(=O)c1ccc2c(c1)OCO2)c1ccccc1O`, the Potency was active: 5.17 µM.
With `O=C(COc1ccccc1Cl)NC(=O)NC1CCCC1` the Potency was inconclusive: 16.4 µM [activator, partial curve].
In the case of `COc1cc(OC)cc(C(=O)Nc2ccc(N3CCN(C(=O)c4cccs4)CC3)cc2)c1`, the Potency was inconclusive: 23.1 µM [falling, partial curve, poor fit].
With `CCn1ccc2cc(OC)ccc2c1=S` the “activity change, negative = inhibition” value was inactive: -13%.
For `Cc1cc(OCc2ccc(C(=O)NN=C3CCCC3)cc2)ccc1Cl`, the Potency was inconclusive: 29.1 µM [activator, single point].
For `O=[N+]([O-])c1ccc(CSc2ccc(S(=O)(=O)N3CCCCC3)cn2)cc1`, the Potency was inconclusive: 20.6 µM [falling, partial curve, poor fit].
For `Cc1cnc(CN(C)C(=O)c2ccc3oc(Cc4ccccc4)nc3c2)[nH]1`, the Potency was inconclusive: 13 µM [activator, partial curve, poor fit].
For `COc1ccc(NC(=O)CC(C)CC(=O)NCc2ccc(F)cc2)c(OC)c1` (stereo not given), the “activity change, negative = inhibition” value was inactive: 2.37%.
For `COCCOC(=O)c1c(C)oc2c1cc(NS(=O)(=O)c1ccc(Cl)c(C)c1)c1ccccc12`, the “activity change, negative = inhibition” value was inactive: -9%.
With `Cc1c(CCC(=O)O)c(=O)oc2cc3occ(-c4ccc(F)cc4)c3cc12` the “activity change, negative = inhibition” value was inactive: 4.27%.
With `CC(=O)c1ccccc1OCC(O)CN1CCN(CCN2C(=O)c3cccc4cccc(c34)C2=O)CC1` (stereo not given) the Potency was inconclusive: 16.4 µM [falling, single point].
With `COc1ccc(NC(=O)CCN2C(=O)NC3(CCCC3)C2=O)cc1Cl` the Potency was inconclusive: 4.11 µM [falling, partial curve, poor fit].
With `COc1ccc2nc(CNC(=O)C3CCC(=O)N(CCc4ccccc4)C3)[nH]c2c1` (stereo not given) the Potency was inconclusive: 29.1 µM [activator, partial curve, poor fit].
In the case of `Cc1cc(Br)cc2c(C(=O)Nc3c(C)n(C)n(-c4ccccc4)c3=O)cc(-c3cccs3)nc12`, the Potency was inconclusive: 29.1 µM [falling, single point].
For `CC(Nc1nc(-c2ccc(F)cc2)cs1)c1nc2cc(Cl)c(N3CCCCC3)cc2n1CCCO` (stereo not given), the Potency was inconclusive: 29.1 µM [falling, single point].
In the case of `COc1ccc(C2=Nc3ccccc3OC2)cc1`, the Potency was inconclusive: 1.16 µM [activator, full curve].
In the case of `CCC1Cc2c(nc(N)c3c(N)nc(N4CCOCC4)c(C#N)c23)O1` (stereo not given), the Potency was inconclusive: 14.6 µM [falling, partial curve].
With `Cc1c(C(=O)NCC2CCCO2)oc2ccc3c(c12)C(=O)CC(C)(C)O3` (stereo not given) the Potency was inconclusive: 1.3 µM [activator, full curve].
In the case of `CCc1ccc(NC(=O)C2CCCN(c3nn4cc(-c5ccc(OC)cc5)nc4s3)C2)cc1` (stereo not given), the Potency was inconclusive: 13 µM [falling, partial curve, poor fit].
For `C=CCNc1ncnc2c1cnn2-c1cccc(C)c1`, the Potency was inconclusive: 10.3 µM [activator, partial curve].
In the case of `Cc1ccc(NC(=O)c2c(C)oc3ccc(O)c(CN4CCCC4)c23)c(C)c1`, the “activity change, negative = inhibition” value was inactive: 13%.
In the case of `CCOc1ccc(C(=O)CCN2CCOCC2)cc1`, the Potency was inconclusive: 0.0065 µM [falling, full curve, poor fit].
For `O=C(Nc1ccc(F)cc1Cl)C1CCN(c2ncnc3c2nc2n3CCCCC2)CC1`, the “activity change, negative = inhibition” value was inactive: -8.75%.
With `O=C(/C=C/c1ccc(Br)cc1)NC(=O)c1ccccc1O` the “activity change, negative = inhibition” value was inactive: 5.94%.
With `Clc1ccc(/C=C/c2ncc3ccccn23)cc1` the Potency was inconclusive: 11.6 µM [activator, partial curve].
With `CCOC(=O)N1CCN(C(=O)COc2cccc3c2CCN(Cc2cccc(C)c2)C3=O)CC1` the Potency was inconclusive: 29.1 µM [falling, single point].
With `COc1ccc2c(=O)c(-c3ccc(OC)c(OC)c3)coc2c1` the “activity change, negative = inhibition” value was inactive: 5.67%.
For `COc1ccccc1N1CCN(Cc2nc(-c3ccc(F)cc3)oc2C)CC1`, the Potency was inconclusive: 14.6 µM [falling, partial curve, poor fit].
With `Cc1ccc(-c2nc(-c3ccncc3)no2)c(C)c1` the Potency was inconclusive: 6.51 µM [activator, full curve].
For `COc1ccccc1-c1cc2nc(C)c(CCC(=O)NCc3ccc(F)cc3)c(C)n2n1`, the Potency was inconclusive: 18.4 µM [falling, partial curve].
With `Cc1ccc(-c2csc(NC(=O)c3c(C)noc3C)n2)s1` the Potency was inconclusive: 23.1 µM [falling, single point].
For `COC(=O)c1c(NC(=O)COc2c(C)cccc2C)sc2c1CCCC2`, the Potency was inconclusive: 13 µM [falling, partial curve].
For `CCc1ccc(CN(C)C(=O)c2cc(S(=O)(=O)N3CCN(CC)CC3)ccc2Cl)cc1`, the Potency was inconclusive: 29.1 µM [falling, partial curve, poor fit].
With `CCOc1ccccc1NC(=O)c1cc2cc(C)ccc2n1C` the “activity change, negative = inhibition” value was inactive: 5.17%.
With `COc1ccc(NC(=S)N2CCC(c3nc4ccc(Cl)cc4[nH]3)CC2)c(OC)c1` the Potency was inconclusive: 13 µM [falling, partial curve].
In the case of `O=C(Nc1ccc2sc3ccccc3c(=O)c2c1)c1ccccc1Cl`, the Potency was inconclusive: 0.461 µM [activator, full curve, poor fit].
For `Cc1ccc(NC(=O)c2cncc(Br)c2)cc1S(=O)(=O)N(C)C`, the Potency was inconclusive: 2.91 µM [activator, full curve].
In the case of `COc1cc(-c2nc(-c3ccccc3)c(-c3cc([N+](=O)[O-])ccc3C)[nH]2)cc(OC)c1OC`, the Potency was inconclusive: 20.6 µM [falling, single point].
With `Cc1cccc(NC(=O)CSC2=Nc3ccccc3C3=NC(CCC(=O)NCc4ccc(F)cc4)C(=O)N23)c1` (stereo not given) the Potency was inconclusive: 9.2 µM [falling, partial curve, poor fit].
In the case of `CSc1cc2c(s1)c1cnn(Cc3cccc(N)c3)c(=O)c1n2C`, the “activity change, negative = inhibition” value was inactive: -10.1%.
For `CC1=NOC(=O)/C1=C/c1ccc(O)cc1`, the “activity change, negative = inhibition” value was inactive: -2.93%.
With `Cc1cccc(C)c1OCc1cc(C(=O)NCC2COCCO2)no1` (stereo not given) the Potency was inconclusive: 16.4 µM [activator, partial curve].
For `CCn1cc(C(=O)O)c(=O)c2cnc(N3CCN(C(=S)Nc4ccccc4)CC3)nc21`, the Potency was inconclusive: 29.1 µM [falling, single point].
With `CCOc1ccccc1NC(=O)Cc1csc(COc2cccc(C)c2)n1` the Potency was inconclusive: 23.1 µM [falling, partial curve].
For `CS(=O)(=O)c1nc(S(=O)(=O)c2ccc(Cl)cc2)c(N2CCOCC2)s1`, the Potency was inconclusive: 29.1 µM [falling, single point].
With `Cc1onc(-c2c(F)cccc2Cl)c1C(=O)OCC(=O)NC(N)=O` the Potency was inconclusive: 29.1 µM [falling, single point].
For `CSc1ccc(CN(C)C(=O)c2cc(S(=O)(=O)NCc3ccccc3)ccc2C)cc1`, the Potency was inconclusive: 20.6 µM [falling, single point].
For `Cc1cc(C(=O)N[C@H](c2ccccc2)[C@@]2(C)C[C@@H]2[C@@H](C)C(=O)Nc2ccc3ccccc3c2)no1`, the Potency was inconclusive: 29.1 µM [falling, single point].
For `O=C(NNC(=O)c1nn(-c2ccc(F)cc2)ccc1=O)Nc1cccc(Cl)c1`, the “activity change, negative = inhibition” value was inactive: 6.21%.
For `O=C(Nc1ccccc1)[C@@H]1CC=C[C@@H]2CCN(Cc3ccc(Cl)c(Cl)c3)C(=O)[C@@H]21`, the Potency was inconclusive: 20.6 µM [falling, single point].
For `COc1cccc2sc(Nc3nc(-c4cc5ccccc5oc4=O)cs3)nc12`, the “activity change, negative = inhibition” value was inactive: 0.0207%.
In the case of `S=C(NC1CCCCC1)N(CCc1ccccc1)CCc1ccccc1`, the Potency was inconclusive: 29.1 µM [falling, partial curve, poor fit].
In the case of `Cc1ccc2nc(-c3cccc(-c4cccc(Cl)c4)c3)c(NCc3ccccc3)n2c1`, the Potency was inconclusive: 23.1 µM [falling, single point].
For `Cc1cc(C)c2cc(C#N)c(N3CCCC3)nc2c1`, the “activity change, negative = inhibition” value was inactive: 4.5%.
For `C/C(Cl)=C\Cn1c(N2CCCC2)nc2c1c(=O)n(C)c(=O)n2C`, the Potency was inconclusive: 29.1 µM [falling, single point].
With `COc1ccccc1OCC(=O)Nc1ccc(S(=O)(=O)N2CCN(C)CC2)cc1` the Potency was inconclusive: 29.1 µM [activator, single point].
With `COc1ccc(Nc2nc3c(S(=O)(=O)c4ccc(Br)cc4)nnn3c3ccsc23)c(OC)c1` the Potency was inconclusive: 14.6 µM [falling, partial curve, poor fit].
With `Cc1cc(C)c(NC(=O)C2=COCCO2)c(C)c1` the Potency was inconclusive: 20.6 µM [activator, single point].

— PubChem BioAssay AID504444 (National Center for Advancing Translational Sciences (NCATS), 2011)
% is scaled to controls: 0 for no effect and ±100 for the full control effect; potency is read from the fitted curve at half-maximal effect.
